From patent publication US20100261710A1, “HDAC Inhibitors” (ARQULE, INC., priority 2007, published 2010) come the findings set out here.

The subject of this experiment is HDACs (nuclear HeLa extract). Description: pan-HDAC fluorescent biochemical assay with nuclear HeLa extract. Particulars: HDAC peptide substrate, 60 min at 37° C. As for the experimental part:
Substrate was synthesized in house. Stocks were prepared in DMSO (10 mM).
Compound working solution: Compounds dissolved in assay buffer at 4× Screening concentration. Activator solution: Trypsin (10 mg/mL) diluted 1:1600 in Assay Buffer containing 4 μM TSA.
Total reaction Volume: 40 μL
Reaction was allowed to run for 60 minutes at 37° C.
2. Combine in a white ½ area well plate: 10 μl of 4× compound (or buffer), 15 μl of substrate and 15 μl of HeLa extract. Mix well
3. Incubate at 37° C. for 60 min.
4. Prepare Activator solution. Dilute Trypsin 1:1600 in Assay Buffer+4μM TSA. 20 μl is needed per assay point.
5. Add 20 μl of prepared activator solution and mix thoroughly.
The hydroxamic-acid based compounds of the present invention were tested in the biochemical assay for their pan-HDAC inhibitory activity.

In the case of `CC(=O)CCCCCNC(=O)c1cn2c3c(cccc13)CCC2` [compound 17, N-(6-oxoheptyl)-5,6-dihydro-4H-pyrrolo[3,2,1-ij]quinoline-1-carboxamide], the IC50 (usually the concentration that inhibits the measured activity by half) was found to be 10 µM.
